# Measured values published in PMC5996148.
# This is one part of the list. For some assays here: The exact form of the protein is not confirmed.
# Tests used:
# Experiment in all cases: protein microarray (ProtoArray v5.0), streptavidin-Alexa Fluor 647
# Conditions in all cases: 3'-biotin; 20 mM Tris (pH 7.5), 5 mM MgCl2, 100 mM KCl, 0.1% Tween-20, A/T-rich and random oligonucleotide blockers; temperature not stated; high values mean tight binding
# PBK (human) = system: PBK (human)
# PBLD (human) = system: PBLD (human)
# PBRM1 (human) = system: PBRM1 (human)
# PCBD1 (human) = system: PCBD1 (human)
# PCBD2 (human) = system: PCBD2 (human)
# PCBP1 (human) = system: PCBP1 (human)
# PCBP4 (human) = system: PCBP4 (human)
# PCDHB16 (human) = system: PCDHB16 (human)
# PCDHGA5 = target: T1, PCDHGA5 (UniProt Q9Y5G8)
# T1 sequence: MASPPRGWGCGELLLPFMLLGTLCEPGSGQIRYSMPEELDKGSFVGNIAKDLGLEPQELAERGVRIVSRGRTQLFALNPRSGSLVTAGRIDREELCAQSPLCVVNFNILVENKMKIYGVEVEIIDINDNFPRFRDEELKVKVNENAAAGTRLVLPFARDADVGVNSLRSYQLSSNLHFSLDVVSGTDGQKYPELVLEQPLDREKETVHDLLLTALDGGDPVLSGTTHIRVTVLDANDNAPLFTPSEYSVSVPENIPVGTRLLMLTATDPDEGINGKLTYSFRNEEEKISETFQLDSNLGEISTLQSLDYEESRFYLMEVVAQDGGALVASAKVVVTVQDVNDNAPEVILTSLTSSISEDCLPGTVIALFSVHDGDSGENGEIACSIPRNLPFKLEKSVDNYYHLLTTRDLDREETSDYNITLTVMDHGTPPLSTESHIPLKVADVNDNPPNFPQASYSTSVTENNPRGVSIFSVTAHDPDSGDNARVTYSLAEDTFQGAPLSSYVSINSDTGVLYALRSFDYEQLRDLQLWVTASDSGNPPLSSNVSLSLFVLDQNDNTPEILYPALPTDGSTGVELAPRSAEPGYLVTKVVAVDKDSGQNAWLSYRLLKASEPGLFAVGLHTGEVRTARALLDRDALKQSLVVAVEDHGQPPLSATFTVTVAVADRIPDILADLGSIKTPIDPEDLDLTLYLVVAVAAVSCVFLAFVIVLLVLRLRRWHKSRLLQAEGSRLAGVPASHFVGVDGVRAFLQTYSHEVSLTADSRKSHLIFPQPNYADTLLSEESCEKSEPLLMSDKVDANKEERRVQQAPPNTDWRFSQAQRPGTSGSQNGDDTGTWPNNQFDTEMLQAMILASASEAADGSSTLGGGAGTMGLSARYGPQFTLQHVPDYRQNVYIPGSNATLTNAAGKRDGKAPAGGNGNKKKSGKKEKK
# PCDHGC4 (human) = system: PCDHGC4 (human)
# PCDHGC5 (human) = system: PCDHGC5 (human)
# PCK1 (human) = system: PCK1 (human)
# PCLO (human) = system: PCLO (human)
# PCNA (human) = system: PCNA (human)
# PCSK4 (human) = system: PCSK4 (human)
# PCTP (human) = system: PCTP (human)
# PCYT1B (human) = system: PCYT1B (human)
# PDCD5 = target: T2, PDCD5 (UniProt O14737)
# T2 sequence: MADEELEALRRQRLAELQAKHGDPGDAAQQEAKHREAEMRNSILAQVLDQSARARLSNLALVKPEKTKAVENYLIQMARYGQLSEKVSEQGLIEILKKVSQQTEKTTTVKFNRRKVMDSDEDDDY
# PDCL (human) = system: PDCL (human)
# PDE4A (human) = system: PDE4A (human)
sequence,measurement,setting,value
GGGAGGCTGAGGCAGG [G4-1 biotinylated (PQS2)],binding signal,PBK (human),-0.353 z-score
same,binding signal,PBLD (human),-0.347 z-score
same,binding signal,PBRM1 (human),-0.276 z-score
same,binding signal,PCBD1 (human),-0.341 z-score
same,binding signal,PCBD2 (human),-0.299 z-score
same,binding signal,PCBP1 (human),-0.297 z-score
same,binding signal,PCBP4 (human),-0.325 z-score
same,binding signal,PCDHB16 (human),-0.334 z-score
same,binding signal,PCDHGA5,-0.31 z-score
same,binding signal,PCDHGC4 (human),-0.328 z-score
same,binding signal,PCDHGC5 (human),-0.345 z-score
same,binding signal,PCK1 (human),-0.357 z-score
same,binding signal,PCLO (human),-0.325 z-score
same,binding signal,PCNA (human),-0.347 z-score
same,binding signal,PCSK4 (human),-0.312 z-score
same,binding signal,PCTP (human),-0.361 z-score
same,binding signal,PCYT1B (human),-0.341 z-score
same,binding signal,PDCD5,-0.335 z-score
same,binding signal,PDCL (human),-0.35 z-score
same,binding signal,PDE4A (human),-0.339 z-score

# Part of the list above in another layout.
sequence	measurement	setting	value
GGGAGGCTGAGGCAGG [G4-1 biotinylated (PQS2)]	binding signal	PCBP4 (human)	-0.325 z-score
same	binding signal	PCYT1B (human)	-0.341 z-score
